The list shows a part of the results, in another mix than the full data. Most entries show no effect beyond the scatter of the controls.
Compound: Nc1ncnc2c1ncn2[C@@H]1O[C@H](COP(=O)(O)OP(=O)(O)OP(=O)(O)O)[C@@H](O)[C@H]1O [adenosine 5'-triphosphate]
Assay: log2 fold change of tryptic peptide abundance, ligand vs vehicle (limited proteolysis) (log2 ratio); higher = more trypsin-susceptible (destabilized)
Conditions: ligand concentration: 5 mM; sample: E. coli desalted lysate; replicate design: treated before aliquoting
Method: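 HT-PELSA: desalted E. coli K-12 BW25113 lysate (with 12 mM MgCl2) incubated with 5 mM ATP (pH 7) or water for 30 min at 25 C, then a 4 min trypsin pulse at 22 C. Peptides were quantified by DIA-MS (4 replicates). Value is the peptide log2 fold change (treated/control); negative = stabilized. Scale: negative = ligand-stabilized region.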
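Note: lysate desalted by size exclusion to strip endogenous ATP, peptide intensities built from DIA-NN precursor signals, and peptides missing any value discarded before comparison.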

Chains of the proteins cited; added tags and fusions are not shown. Lines headed by an entry give the natural chain unless they say otherwise; changes in a name come on top.
UniProt P76513: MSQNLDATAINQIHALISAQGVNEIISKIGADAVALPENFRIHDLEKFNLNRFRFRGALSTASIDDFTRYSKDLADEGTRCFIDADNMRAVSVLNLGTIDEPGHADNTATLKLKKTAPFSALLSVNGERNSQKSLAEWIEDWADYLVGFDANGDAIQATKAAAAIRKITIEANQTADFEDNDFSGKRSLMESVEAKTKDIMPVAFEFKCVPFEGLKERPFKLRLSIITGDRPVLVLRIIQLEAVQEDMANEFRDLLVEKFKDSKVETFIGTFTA
UniProt P76541: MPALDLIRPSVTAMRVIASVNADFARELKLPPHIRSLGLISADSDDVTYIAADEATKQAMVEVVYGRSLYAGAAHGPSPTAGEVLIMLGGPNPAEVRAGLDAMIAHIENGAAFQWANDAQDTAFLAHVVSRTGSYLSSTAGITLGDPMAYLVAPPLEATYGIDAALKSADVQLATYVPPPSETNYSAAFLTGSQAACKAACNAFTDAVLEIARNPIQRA
UniProt P76537: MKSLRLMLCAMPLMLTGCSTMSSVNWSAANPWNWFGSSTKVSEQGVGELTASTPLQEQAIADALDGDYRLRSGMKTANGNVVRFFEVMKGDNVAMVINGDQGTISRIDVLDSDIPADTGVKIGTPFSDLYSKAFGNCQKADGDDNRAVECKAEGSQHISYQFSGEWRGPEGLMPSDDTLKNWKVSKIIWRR
UniProt P75938: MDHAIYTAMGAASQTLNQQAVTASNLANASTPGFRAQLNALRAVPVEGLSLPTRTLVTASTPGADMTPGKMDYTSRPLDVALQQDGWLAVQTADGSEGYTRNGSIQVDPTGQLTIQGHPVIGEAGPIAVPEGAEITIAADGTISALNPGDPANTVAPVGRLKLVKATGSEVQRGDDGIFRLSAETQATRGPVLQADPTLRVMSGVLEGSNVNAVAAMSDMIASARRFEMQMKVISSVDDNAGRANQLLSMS
UniProt P77221: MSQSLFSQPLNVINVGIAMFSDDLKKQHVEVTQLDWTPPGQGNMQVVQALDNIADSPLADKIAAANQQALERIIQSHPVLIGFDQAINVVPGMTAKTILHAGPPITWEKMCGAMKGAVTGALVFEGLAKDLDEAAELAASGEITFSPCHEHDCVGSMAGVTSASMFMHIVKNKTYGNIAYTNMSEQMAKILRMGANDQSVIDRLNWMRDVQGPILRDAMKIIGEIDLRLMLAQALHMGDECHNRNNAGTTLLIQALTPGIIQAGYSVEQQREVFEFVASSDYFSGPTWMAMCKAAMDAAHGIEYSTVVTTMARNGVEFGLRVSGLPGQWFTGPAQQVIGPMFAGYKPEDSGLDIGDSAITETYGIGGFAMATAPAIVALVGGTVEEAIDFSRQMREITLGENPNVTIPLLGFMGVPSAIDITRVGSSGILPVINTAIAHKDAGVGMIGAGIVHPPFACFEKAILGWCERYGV
UniProt P75937: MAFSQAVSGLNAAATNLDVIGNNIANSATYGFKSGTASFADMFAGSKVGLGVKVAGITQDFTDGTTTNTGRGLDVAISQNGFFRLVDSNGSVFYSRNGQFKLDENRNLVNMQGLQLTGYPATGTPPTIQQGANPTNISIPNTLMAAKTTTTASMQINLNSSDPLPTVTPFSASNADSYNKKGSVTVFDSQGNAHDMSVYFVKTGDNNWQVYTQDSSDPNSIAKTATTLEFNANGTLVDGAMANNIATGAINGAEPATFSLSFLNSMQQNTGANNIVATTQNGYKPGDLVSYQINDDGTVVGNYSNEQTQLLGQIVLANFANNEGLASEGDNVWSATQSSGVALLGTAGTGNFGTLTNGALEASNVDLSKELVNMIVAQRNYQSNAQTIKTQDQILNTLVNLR
UniProt P75792: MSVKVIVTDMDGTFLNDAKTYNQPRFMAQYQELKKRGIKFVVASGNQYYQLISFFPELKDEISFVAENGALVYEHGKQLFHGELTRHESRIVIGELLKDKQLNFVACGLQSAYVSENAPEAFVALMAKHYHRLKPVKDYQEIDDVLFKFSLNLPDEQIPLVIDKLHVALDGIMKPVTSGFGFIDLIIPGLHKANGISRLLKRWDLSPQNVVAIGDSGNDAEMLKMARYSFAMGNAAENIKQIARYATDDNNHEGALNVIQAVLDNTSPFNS
UniProt P76251: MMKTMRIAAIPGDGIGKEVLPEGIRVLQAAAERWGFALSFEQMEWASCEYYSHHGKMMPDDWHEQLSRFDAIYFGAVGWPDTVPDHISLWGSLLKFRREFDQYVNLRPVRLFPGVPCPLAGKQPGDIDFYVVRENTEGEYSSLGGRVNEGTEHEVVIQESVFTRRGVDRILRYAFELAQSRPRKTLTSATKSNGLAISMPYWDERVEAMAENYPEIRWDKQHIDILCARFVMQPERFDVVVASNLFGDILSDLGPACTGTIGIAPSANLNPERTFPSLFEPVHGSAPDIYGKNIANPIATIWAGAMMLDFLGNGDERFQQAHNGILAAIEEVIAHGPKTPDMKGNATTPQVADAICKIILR
UniProt P76001: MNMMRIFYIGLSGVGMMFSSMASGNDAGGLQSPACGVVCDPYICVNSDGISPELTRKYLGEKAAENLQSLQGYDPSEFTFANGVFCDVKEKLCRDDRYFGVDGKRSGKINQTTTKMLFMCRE
UniProt P76272: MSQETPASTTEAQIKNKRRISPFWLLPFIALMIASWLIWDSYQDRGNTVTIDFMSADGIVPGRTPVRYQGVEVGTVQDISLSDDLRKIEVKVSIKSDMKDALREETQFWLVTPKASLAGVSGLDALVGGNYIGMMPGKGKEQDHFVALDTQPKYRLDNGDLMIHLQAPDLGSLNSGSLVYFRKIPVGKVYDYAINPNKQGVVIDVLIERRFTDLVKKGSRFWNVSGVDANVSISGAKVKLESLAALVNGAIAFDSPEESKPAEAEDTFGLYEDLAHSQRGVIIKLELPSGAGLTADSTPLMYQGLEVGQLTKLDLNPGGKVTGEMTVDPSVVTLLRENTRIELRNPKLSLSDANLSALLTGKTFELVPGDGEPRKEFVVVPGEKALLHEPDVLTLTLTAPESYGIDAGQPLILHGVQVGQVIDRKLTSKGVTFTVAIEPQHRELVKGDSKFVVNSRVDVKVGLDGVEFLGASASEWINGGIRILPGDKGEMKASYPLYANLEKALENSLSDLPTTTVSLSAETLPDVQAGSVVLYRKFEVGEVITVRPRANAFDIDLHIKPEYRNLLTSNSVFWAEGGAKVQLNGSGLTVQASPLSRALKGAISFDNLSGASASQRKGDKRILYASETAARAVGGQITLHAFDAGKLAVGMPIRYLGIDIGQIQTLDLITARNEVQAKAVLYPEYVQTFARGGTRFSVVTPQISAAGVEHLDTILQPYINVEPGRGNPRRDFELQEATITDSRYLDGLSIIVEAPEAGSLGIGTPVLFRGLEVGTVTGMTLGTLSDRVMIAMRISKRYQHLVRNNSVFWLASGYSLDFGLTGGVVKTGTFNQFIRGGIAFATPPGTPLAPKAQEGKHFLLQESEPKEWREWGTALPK
UniProt P76498: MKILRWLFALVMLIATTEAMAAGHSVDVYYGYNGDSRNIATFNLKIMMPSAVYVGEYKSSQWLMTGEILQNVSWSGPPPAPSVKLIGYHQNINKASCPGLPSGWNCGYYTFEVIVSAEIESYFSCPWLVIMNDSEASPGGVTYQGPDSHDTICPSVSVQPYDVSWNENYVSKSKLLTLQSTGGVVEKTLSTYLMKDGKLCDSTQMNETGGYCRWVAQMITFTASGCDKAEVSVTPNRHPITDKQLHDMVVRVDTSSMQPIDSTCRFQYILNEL
UniProt P75804: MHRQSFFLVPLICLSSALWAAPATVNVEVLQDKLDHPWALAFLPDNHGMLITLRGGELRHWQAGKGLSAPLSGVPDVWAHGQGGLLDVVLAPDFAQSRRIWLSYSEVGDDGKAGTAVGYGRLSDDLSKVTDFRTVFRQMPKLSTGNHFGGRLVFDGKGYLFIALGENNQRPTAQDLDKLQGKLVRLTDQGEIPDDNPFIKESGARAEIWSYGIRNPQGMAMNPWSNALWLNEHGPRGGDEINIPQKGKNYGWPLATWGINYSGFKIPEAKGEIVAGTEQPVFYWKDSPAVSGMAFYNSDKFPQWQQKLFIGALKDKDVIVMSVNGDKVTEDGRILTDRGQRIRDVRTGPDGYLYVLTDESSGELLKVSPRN
UniProt P76002: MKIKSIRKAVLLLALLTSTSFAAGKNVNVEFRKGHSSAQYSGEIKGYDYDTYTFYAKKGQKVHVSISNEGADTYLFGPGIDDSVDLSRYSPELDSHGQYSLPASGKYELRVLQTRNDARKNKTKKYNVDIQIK
UniProt P76280: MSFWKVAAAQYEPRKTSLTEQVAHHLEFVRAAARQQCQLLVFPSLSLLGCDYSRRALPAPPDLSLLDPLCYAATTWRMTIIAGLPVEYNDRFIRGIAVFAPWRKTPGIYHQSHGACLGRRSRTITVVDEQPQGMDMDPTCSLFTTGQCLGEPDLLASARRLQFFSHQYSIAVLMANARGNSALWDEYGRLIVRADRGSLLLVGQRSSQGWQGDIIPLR
UniProt P75800: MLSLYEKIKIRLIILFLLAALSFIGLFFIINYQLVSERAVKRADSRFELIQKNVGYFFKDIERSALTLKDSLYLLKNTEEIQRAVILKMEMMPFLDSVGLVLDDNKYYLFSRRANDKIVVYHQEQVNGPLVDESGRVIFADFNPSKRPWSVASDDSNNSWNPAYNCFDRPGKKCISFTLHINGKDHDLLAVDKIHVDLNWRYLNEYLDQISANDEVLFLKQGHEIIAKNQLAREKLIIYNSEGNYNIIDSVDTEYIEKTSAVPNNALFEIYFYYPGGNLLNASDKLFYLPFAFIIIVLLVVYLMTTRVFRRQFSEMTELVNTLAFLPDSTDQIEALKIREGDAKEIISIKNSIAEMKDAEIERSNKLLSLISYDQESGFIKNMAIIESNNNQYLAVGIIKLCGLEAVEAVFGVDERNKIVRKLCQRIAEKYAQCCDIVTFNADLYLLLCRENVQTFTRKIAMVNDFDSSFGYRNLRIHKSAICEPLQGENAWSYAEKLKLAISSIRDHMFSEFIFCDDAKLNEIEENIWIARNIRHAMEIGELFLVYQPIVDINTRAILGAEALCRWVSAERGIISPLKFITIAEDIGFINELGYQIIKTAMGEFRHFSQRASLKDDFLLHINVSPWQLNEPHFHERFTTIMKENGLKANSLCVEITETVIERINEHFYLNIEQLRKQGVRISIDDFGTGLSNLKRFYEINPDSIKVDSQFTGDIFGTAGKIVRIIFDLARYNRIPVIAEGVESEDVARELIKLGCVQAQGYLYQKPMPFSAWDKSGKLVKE
UniProt P76547: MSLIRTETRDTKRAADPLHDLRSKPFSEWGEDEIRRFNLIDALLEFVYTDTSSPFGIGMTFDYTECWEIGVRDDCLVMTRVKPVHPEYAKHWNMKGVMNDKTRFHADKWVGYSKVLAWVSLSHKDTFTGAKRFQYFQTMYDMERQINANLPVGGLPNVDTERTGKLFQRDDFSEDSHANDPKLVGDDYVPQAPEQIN

| Target | log2 fold change |
| --- | --- |
| UniProt P76513 (peptide sequence: SLMESVEAK, peptide start residue: 188) | 0.0642 |
| UniProt P76541 (peptide sequence: VIASVNADFAR, peptide start residue: 16) | -0.448 |
| UniProt P76537 (peptide sequence: IGTPFSDLYSK, peptide start residue: 122) | 0.287 |
| UniProt P76148 (peptide sequence: GHPVFIAQHATATCCRGCLAK, peptide start residue: 66) | -0.286 |
| UniProt P75938 (peptide sequence: LSAETQATR, peptide start residue: 181) | 0.976 |
| UniProt P77221 (peptide sequence: DVQGPILR, peptide start residue: 209) | 0.43 |
| UniProt P75937 (peptide sequence: ELVNMIVAQR, peptide start residue: 370) | 0.172 |
| UniProt P75792 (peptide sequence: FMAQYQELK, peptide start residue: 26) | 0.344 |
| UniProt P76251 (peptide sequence: IAAIPGDGIGK, peptide start residue: 7) | -0.246 |
| UniProt P76001 (peptide sequence: INQTTTKMLFMCRE, peptide start residue: 109) | -0.376 |
| UniProt P76272 (peptide sequence: GKEQDHFVALDTQPK, peptide start residue: 139) | -0.638 |
| UniProt P76498 (peptide sequence: LLTLQSTGGVVEK, peptide start residue: 175) | 0.316 |
| UniProt P75804 (peptide sequence: AEIWSYGIR, peptide start residue: 206) | -0.463 |
| UniProt P76002 (peptide sequence: YNVDIQIK, peptide start residue: 126) | -0.202 |
| UniProt P76280 (peptide sequence: KTSLTEQVAHHLEFVR, peptide start residue: 15) | 0.375 |
| UniProt P75800 (peptide sequence: AILGAEALCR, peptide start residue: 557) | 0.54 |
| UniProt P76547 (peptide sequence: FHADKWVGYSK, peptide start residue: 104) | -0.291 |

In a second layout: entries from further up.
Target,log2 fold change
"UniProt P75938 (peptide sequence: LSAETQATR, peptide start residue: 181)",0.976
"UniProt P77221 (peptide sequence: DVQGPILR, peptide start residue: 209)",0.43
"UniProt P75937 (peptide sequence: ELVNMIVAQR, peptide start residue: 370)",0.172
"UniProt P75792 (peptide sequence: FMAQYQELK, peptide start residue: 26)",0.344

Source: the supplement of paper PMC12819154, “High-throughput peptide-centric local stability assay extends protein–ligand identification to membrane proteins, tissues and bacteria” (Nature Structural & Molecular Biology, 2025)
